In the supplement of paper PMC12819154, “High-throughput peptide-centric local stability assay extends protein–ligand identification to membrane proteins, tissues and bacteria” (Nature Structural & Molecular Biology, 2025):
Some of the results follow. Most values lie at the level of the controls, where differences are scatter.

Protein sequences, listed by entry. Tags and fused reporters are not part of them. Lines headed by an entry give the natural chain unless they say otherwise; changes in a name come on top.
UniProt Q9NYS0: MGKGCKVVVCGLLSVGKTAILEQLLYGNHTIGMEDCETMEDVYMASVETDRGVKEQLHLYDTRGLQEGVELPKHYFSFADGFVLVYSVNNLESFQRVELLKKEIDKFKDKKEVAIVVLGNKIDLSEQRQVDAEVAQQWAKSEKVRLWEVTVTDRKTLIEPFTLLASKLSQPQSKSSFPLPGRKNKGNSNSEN
UniProt Q9NYA1, whole entry: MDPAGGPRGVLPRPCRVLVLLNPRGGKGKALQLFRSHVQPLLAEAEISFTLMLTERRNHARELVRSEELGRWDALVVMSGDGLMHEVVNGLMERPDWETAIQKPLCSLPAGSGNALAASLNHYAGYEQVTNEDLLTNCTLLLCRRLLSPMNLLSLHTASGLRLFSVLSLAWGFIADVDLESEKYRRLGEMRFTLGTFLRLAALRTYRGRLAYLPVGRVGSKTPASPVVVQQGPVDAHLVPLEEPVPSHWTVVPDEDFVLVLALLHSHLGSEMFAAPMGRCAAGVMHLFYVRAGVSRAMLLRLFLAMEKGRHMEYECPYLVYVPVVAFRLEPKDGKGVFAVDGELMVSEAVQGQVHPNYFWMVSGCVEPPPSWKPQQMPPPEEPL
UniProt Q9P0S2: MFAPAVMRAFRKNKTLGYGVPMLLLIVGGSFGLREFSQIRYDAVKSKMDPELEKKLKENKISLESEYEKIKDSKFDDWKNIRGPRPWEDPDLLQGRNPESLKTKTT
UniProt Q9NYZ3: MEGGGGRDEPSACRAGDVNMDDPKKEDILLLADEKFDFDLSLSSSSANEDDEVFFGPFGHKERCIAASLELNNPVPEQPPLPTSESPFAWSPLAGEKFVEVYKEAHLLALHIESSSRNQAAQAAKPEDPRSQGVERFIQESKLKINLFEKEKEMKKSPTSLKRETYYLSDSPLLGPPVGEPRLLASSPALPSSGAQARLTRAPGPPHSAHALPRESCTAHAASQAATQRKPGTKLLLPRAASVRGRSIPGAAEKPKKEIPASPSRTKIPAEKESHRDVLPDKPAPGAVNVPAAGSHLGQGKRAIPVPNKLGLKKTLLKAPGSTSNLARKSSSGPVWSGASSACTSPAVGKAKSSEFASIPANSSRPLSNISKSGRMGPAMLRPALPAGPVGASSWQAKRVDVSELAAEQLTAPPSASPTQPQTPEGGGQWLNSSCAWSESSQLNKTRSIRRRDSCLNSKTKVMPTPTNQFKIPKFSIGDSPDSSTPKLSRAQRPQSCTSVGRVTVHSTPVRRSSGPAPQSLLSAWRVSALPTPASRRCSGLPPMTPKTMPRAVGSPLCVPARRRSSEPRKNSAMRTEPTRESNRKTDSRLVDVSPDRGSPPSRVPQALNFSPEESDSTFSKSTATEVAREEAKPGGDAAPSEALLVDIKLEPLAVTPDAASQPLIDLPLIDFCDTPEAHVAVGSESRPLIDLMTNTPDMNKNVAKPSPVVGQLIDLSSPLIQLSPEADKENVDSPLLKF
UniProt Q9NZN4: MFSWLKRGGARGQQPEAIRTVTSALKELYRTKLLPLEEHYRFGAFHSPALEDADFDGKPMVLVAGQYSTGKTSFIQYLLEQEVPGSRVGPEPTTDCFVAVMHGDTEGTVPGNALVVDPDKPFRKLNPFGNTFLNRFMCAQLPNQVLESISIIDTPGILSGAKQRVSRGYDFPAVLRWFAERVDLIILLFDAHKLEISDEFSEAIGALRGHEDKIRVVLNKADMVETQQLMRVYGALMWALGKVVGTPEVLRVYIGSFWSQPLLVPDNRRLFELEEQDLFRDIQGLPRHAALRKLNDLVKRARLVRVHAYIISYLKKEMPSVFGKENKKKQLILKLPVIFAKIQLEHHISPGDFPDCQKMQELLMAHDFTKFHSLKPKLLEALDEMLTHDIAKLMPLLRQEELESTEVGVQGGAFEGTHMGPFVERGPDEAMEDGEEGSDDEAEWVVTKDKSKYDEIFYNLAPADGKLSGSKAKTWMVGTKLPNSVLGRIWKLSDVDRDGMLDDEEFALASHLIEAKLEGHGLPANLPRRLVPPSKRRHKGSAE
UniProt Q9NX24: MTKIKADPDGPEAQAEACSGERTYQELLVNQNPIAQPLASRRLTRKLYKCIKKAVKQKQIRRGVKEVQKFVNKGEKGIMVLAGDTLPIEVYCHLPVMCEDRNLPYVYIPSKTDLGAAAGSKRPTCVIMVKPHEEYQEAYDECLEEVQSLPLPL
UniProt Q9P0W2: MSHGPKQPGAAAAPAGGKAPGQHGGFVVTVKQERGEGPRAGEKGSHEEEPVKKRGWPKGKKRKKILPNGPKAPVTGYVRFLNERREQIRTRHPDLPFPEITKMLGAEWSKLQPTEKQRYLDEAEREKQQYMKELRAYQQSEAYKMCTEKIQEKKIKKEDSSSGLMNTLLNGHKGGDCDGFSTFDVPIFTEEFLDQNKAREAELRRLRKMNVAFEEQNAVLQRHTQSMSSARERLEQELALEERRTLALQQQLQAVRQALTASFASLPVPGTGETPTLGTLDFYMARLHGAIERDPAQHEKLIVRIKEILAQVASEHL
UniProt Q9UEY8: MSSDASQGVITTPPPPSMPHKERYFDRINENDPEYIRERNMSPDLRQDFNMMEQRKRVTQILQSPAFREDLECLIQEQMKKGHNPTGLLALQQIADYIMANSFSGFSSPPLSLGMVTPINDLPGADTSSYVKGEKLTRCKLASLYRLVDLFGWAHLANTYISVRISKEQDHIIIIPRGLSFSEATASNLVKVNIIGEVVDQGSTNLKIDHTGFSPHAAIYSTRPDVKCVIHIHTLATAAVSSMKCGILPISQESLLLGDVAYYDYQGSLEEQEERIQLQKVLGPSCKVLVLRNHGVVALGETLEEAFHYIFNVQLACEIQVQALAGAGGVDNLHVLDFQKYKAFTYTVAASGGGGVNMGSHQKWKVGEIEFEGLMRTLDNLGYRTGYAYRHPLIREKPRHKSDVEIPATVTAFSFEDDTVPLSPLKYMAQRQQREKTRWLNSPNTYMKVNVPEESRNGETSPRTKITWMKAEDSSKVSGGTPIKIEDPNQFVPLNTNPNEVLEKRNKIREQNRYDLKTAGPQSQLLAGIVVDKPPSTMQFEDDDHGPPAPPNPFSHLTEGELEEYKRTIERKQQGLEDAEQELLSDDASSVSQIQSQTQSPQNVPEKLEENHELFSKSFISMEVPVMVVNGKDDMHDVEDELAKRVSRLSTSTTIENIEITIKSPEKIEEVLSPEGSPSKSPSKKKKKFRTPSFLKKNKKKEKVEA
UniProt Q9NXB0: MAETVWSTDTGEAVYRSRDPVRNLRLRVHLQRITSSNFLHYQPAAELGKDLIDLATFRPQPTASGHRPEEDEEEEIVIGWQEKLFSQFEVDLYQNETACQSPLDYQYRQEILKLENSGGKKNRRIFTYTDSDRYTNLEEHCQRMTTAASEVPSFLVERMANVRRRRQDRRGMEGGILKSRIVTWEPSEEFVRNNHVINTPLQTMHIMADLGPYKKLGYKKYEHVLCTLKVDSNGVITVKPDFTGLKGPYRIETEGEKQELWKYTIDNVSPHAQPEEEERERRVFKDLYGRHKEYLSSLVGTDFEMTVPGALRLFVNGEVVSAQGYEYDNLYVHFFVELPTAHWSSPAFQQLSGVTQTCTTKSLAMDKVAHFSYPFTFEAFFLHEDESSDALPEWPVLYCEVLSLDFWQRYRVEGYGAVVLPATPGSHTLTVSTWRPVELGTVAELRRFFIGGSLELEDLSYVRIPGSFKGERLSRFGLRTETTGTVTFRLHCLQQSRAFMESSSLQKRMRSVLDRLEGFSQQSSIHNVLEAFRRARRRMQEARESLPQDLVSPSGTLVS

compound: Cc1nc(Nc2ncc(C(=O)Nc3c(C)cccc3Cl)s2)cc(N2CCN(CCO)CC2)n1 [dasatinib]; experiment: log2 fold change of tryptic peptide abundance, ligand vs vehicle (limited proteolysis) (log2 ratio); higher = more trypsin-susceptible (destabilized); settings: ligand concentration: 5 uM; sample: K562 cleared lysate

Target | log2 fold change
NKIRAS1 (peptide sequence: SSFPLPGR, peptide start residue: 175) (UniProt Q9NYS0) | 0.369
SPHK1 (peptide sequence: VLVLLNPR, peptide start residue: 17) (UniProt Q9NYA1) | -0.0891
COX16 (peptide sequence: GPRPWEDPDLLQGRNPESLK, peptide start residue: 83) (UniProt Q9P0S2) | -0.539
GTSE1 (peptide sequence: AVGSPLCVPAR, peptide start residue: 533) (UniProt Q9NYZ3) | -0.182
EHD2 (peptide sequence: LEGHGLPANLPR, peptide start residue: 517) (UniProt Q9NZN4) | 0.254
NHP2 (peptide sequence: IKADPDGPEAQAEACSGER, peptide start residue: 4) (UniProt Q9NX24) | 0.0354
HMG20B (peptide sequence: APGQHGGFVVTVK, peptide start residue: 19) (UniProt Q9P0W2) | -0.22
ADD3 (peptide sequence: FRTPSFLK, peptide start residue: 709) (UniProt Q9UEY8) | -0.201
UniProt Q9NXB0 (peptide sequence: TETTGTVTFR, peptide start residue: 480) | 0.391
